Measured values as given in publication PMC12005806.
No constants are given. Whether binding was seen depends on the method and setting. In cells and extracts the contact can be indirect. Binding calls can cover weak binding; strength is not graded here.

Sequences of proteins named here, by UniProt entry; tags and fusion partners are left off. A change or cut given only in a name is not applied to a line headed by its entry.
UniProt P10749: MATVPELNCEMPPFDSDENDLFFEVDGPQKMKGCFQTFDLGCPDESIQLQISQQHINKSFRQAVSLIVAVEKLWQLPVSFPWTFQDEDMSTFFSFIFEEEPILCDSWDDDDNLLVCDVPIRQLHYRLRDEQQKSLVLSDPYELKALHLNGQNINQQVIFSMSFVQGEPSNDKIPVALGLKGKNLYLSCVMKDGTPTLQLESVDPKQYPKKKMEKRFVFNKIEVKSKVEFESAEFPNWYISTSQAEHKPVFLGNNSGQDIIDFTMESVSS

Target: IL-1β (co-immunoprecipitation of Figure S3C) (UniProt P10749)
Assay: co-IP; co-immunoprecipitation of Ufl1 with inflammasome components (Figure S3C); cells and constructs not told in the text shown

B1: Ufl1 (co-immunoprecipitation of Figure S3C) (protein, UniProt Q8CCJ3 1-793)
chain: MADAWEEIRRLAADFQRAQFAESTQRLSERNCIEIVNKLISQKQLEVVHTLDGKEYITPAQISKEMRDELHVRGGRVNIVDLQQVINVDLTHIESRVSDIIKSEKHVQMVLGQLIDENYLDQLSEEVNDKLQESGQVTVSELCKAYDLPGDFLTQALTQRLGRIINGHLDLDNRGVIFTEAFVARHKARIRGLFSAITRPTPVNSLVSKYGFQEQLLYSVLEDLVSTGRLRGTVVGGRQDKAVFVPDIYSRTQSTWVDSFFRQNGYLEFDALSRLGIPDAVNYIKKRYKNTQLLFLKATCVGQGLVDQVEASVEEAISSGTWVDISPLLPSSLSVEDAAMLLQQVMRPFGKLASAIVFSDTVVVSEKFITDCTGLFSERMHQKAEKEMKNNPVHLITEEDLKQISILESVNTSKKDKKDERRKKATEGSGSVRGGGGGNAREYKIKKTKKKGRKDEDSDDESQSSHGGKKKPDITFMFQDEIEDCLRKHIQDAPEEFISELAEYLIKPLNKMYLEVVRSVFMSSTSASGTGRKRTIKDLQEEVSNLYNNIRLFEKGMKYFADDTQTALTKHLLKTVCTDITNLMFNFLASDFLMAVEEPAAITSDIRKKILSKLTEETKVALTKLHNSLNEKSIEDFLSCLDSATEACDIMVKKGDKKRERQILFQHRQALCEQLKVTEDPALILHLTAVLLFQLSTHSMLHAPGRCVPQIIAFLHSKIPEDQHTLLVKYQGLVVKQLVSQNKKTGQGEDPSSDELDKEQHDVTNATRKELQELSLSIKDLVLKSRKSSVTEE
Q: How did the binding turn out when B1 was run?
A: The binding was “binds weakly”.
